Measured values from US20070202145A1, “Method for incorporation of bioactives into a porous hydrophobic polymer scaffold” (priority 2003, published 2007).

Assay: Total p38 kinase inhibitor content in composite scaffold (methanol extraction, HPLC)
Details: foam nonwoven composite scaffold, 8 mm; theoretical value 30 micrograms; 30 μl of 1 mg/ml in tertiary butanol, freeze-dried

OCCC#Cc1nc(-c2ccc(F)cc2)c(-c2ccncc2)n1CCCc1ccccc1 [p38 kinase inhibitor, 4-[4-(4-fluorophenyl)-1-(3-phenylpropyl)-5-(4-pyridinyl)-1H-imidazol-2-yl]-3-butyn-1-ol]
total content of p38 kinase inhibitor on each scaffold: 29 micrograms and 29.5 micrograms

Where “and” joins values, the source holds several entries; their conditions need not be identical. Equal entries are not always repeated.
